The results in this text go back to article doi:10.1101/2025.11.21.689678 (bioRxiv, 2025).

Amino acid sequences for entries named in this document (tags omitted).
UniProt P43360: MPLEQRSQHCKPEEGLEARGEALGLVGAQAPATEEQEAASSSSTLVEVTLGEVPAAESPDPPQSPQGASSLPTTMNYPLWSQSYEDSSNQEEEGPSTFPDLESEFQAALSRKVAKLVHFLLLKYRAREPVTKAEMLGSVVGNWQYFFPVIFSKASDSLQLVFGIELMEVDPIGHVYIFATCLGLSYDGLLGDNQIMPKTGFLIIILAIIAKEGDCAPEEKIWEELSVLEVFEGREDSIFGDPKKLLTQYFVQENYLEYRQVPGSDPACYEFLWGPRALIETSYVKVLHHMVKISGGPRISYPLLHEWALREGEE
UniProt P55036: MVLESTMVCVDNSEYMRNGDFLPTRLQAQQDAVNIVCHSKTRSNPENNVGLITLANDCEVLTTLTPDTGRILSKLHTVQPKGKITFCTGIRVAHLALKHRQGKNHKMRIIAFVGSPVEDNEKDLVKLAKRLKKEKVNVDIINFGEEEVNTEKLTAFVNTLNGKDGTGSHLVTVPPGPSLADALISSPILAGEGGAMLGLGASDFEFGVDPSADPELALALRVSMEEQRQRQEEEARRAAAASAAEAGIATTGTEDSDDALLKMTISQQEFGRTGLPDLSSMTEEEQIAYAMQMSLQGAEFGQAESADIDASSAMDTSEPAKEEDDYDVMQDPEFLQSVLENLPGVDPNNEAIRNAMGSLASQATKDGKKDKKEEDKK

Test [1] deals with T1, HA-ALKBH2 (HEK293T) (human) (UniProt Q6NS38).
T1 sequence: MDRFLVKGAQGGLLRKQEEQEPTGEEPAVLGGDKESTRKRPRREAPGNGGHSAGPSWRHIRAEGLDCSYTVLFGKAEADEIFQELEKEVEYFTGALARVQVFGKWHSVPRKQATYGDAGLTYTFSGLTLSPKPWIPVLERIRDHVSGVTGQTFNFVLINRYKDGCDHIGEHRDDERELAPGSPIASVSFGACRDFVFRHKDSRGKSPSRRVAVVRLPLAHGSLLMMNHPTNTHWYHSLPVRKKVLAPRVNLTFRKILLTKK
The experiment in a line: co-IP.

Test [2] has as its target T2, Flag-ALKBH2 (HEK293T) (human) (UniProt Q6NS38).
T2 sequence: T1 sequence
Briefly: co-IP.

Test [3] concerns the target Flag-TRIM28 (H1299) (human) (UniProt Q13263). Briefly: co-IP.
Test [4] addresses T3, TRIM28 SUMO-acceptor-site mutant (K554/779/804R) (human) (UniProt Q13263).
T3 sequence: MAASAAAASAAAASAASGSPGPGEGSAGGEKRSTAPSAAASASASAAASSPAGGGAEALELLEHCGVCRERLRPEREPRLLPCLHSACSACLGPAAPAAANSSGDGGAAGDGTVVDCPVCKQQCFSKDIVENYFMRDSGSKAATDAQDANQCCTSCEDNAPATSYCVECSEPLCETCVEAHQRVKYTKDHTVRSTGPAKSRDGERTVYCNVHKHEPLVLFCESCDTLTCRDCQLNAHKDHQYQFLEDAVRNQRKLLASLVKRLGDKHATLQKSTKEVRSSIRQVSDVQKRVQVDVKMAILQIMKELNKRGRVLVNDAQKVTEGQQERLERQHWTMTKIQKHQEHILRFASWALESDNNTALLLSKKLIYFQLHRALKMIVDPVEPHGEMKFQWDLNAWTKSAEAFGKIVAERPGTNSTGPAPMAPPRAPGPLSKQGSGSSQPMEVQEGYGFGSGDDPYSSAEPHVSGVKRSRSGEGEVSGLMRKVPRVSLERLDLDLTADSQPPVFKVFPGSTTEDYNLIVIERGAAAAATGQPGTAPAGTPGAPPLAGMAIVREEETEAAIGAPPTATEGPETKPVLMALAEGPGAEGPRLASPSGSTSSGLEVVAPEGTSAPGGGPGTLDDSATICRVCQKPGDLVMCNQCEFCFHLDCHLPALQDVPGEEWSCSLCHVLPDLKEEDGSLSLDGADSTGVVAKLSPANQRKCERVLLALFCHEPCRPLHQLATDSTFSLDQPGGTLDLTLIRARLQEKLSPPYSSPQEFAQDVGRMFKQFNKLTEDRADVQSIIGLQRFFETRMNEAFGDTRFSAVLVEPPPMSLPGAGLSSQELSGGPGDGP
Briefly: co-IP.

Test [5] has as its target Flag-TRIM28 (HEK293T) (human) (UniProt Q13263). The experiment in a line: co-IP.
Test [6] concerns the target T4, HA-ALKBH2 (H1299) (human) (UniProt Q6NS38).
T4 sequence: T1 sequence
Briefly: co-IP.

Test [7] deals with Flag-TRIM28 (H1299) (human) (UniProt Q13263). Briefly: co-IP. The source holds these as a separate data set.
For the next test, the target named is MBP-TRIM28 (human) (UniProt Q13263). The experiment in a line: pull-down.
Test [8] has as its target endogenous TRIM28 (H1299) (human (endogenous in H1299)) (UniProt Q13263). Briefly: co-IP.
The target of test [9] is T3, TRIM28 SUMO-acceptor-site mutant (K554/779/804R) (human). Briefly: co-IP. The source holds these as a separate data set.
Test [10] deals with Flag-TRIM28 (HEK293T) (human) (UniProt Q13263). The experiment in a line: co-IP. This is another data set of the same source.

Read-outs that look alike come from different tables or passages of the source. No constants are given. Whether binding was seen depends on the method and setting. For some of these results: In cells and extracts the contact can be indirect. Some entries that bind do so weakly or less than the wild type. For some of these results: Tags and fused reporters may be left off the sequences shown.

Turning to “Flag-TRIM28 (HEK293T) (from UniProt Q13263 1-835)”, the binding result in test [1] is “binds”.
As to Myc-MAGEA6 (from UniProt P43360 1-314), the binding result in [2] was “binds”.
As for “endogenous PSMD4 (H1299) (from UniProt P55036 1-377)”, the binding entry in [3] and in [4] was “binds” each time.
Turning to “endogenous PSMD4 (HEK293T) (from UniProt P55036 1-377)”, the binding entry in test [5] is “binds”.
With “endogenous TRIM28 (H1299) (from UniProt Q13263 1-835)”, the binding result in [6] was “binds”.

B1: HA-ALKBH2 (H1299) (protein, UniProt Q6NS38 1-261)
chain: T1 sequence
For B1, in [7], the binding entry is given as “binds”.

B2: His-Flag-ALKBH2 (natural protein, human, UniProt Q6NS38 1-261, looked up)
chain: T1 sequence
Turning to B2, the binding result in the test with MBP-TRIM28 (human) is given as “binds”.

B3: endogenous ALKBH2 (H1299) (protein, UniProt Q6NS38 1-261)
chain: T1 sequence
Consider B3, for which the binding entry in [7] and in test [8] was “binds” throughout.

B4: endogenous TRIM24 (H1299) (protein, UniProt O15164 1-1050)
chain: MEVAVEKAVAAAAAASAAASGGPSAAPSGENEAESRQGPDSERGGEAARLNLLDTCAVCHQNIQSRAPKLLPCLHSFCQRCLPAPQRYLMLPAPMLGSAETPPPVPAPGSPVSGSSPFATQVGVIRCPVCSQECAERHIIDNFFVKDTTEVPSSTVEKSNQVCTSCEDNAEANGFCVECVEWLCKTCIRAHQRVKFTKDHTVRQKEEVSPEAVGVTSQRPVFCPFHKKEQLKLYCETCDKLTCRDCQLLEHKEHRYQFIEEAFQNQKVIIDTLITKLMEKTKYIKFTGNQIQNRIIEVNQNQKQVEQDIKVAIFTLMVEINKKGKALLHQLESLAKDHRMKLMQQQQEVAGLSKQLEHVMHFSKWAVSSGSSTALLYSKRLITYRLRHLLRARCDASPVTNNTIQFHCDPSFWAQNIINLGSLVIEDKESQPQMPKQNPVVEQNSQPPSGLSSNQLSKFPTQISLAQLRLQHMQQQVMAQRQQVQRRPAPVGLPNPRMQGPIQQPSISHQQPPPRLINFQNHSPKPNGPVLPPHPQQLRYPPNQNIPRQAIKPNPLQMAFLAQQAIKQWQISSGQGTPSTTNSTSSTPSSPTITSAAGYDGKAFGSPMIDLSSPVGGSYNLPSLPDIDCSSTIMLDNIVRKDTNIDHGQPRPPSNRTVQSPNSSVPSPGLAGPVTMTSVHPPIRSPSASSVGSRGSSGSSSKPAGADSTHKVPVVMLEPIRIKQENSGPPENYDFPVVIVKQESDEESRPQNANYPRSILTSLLLNSSQSSTSEETVLRSDAPDSTGDQPGLHQDNSSNGKSEWLDPSQKSPLHVGETRKEDDPNEDWCAVCQNGGELLCCEKCPKVFHLSCHVPTLTNFPSGEWICTFCRDLSKPEVEYDCDAPSHNSEKKKTEGLVKLTPIDKRKCERLLLFLYCHEMSLAFQDPVPLTVPDYYKIIKNPMDLSTIKKRLQEDYSMYSKPEDFVADFRLIFQNCAEFNEPDSEVANAGIKLENYFEELLKNLYPEKRFPKPEFRNESEDNKFSDDSDDDFVQPRKKRLKSIEERQLLK
Consider B4, for which the binding result in test [7] and in [9] was “binds” each time.

B5: endogenous TRIM24 (HEK293T) (protein, UniProt O15164 1-1050)
chain: B4 chain
Take B5: in [10], the binding result was “binds”.
